Results published in PubChem BioAssay AID504450 (Broad Institute, 2011).
“And” between values parts separate entries of the source, which are not always exact repeats. Equal values may be shown once. Inconclusive results, whose numbers are uncertain, are shown with a selection of clear calls. The source made the active and inactive calls.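 How the source made its calls: active means signal falls, and half-maximal potency stays within ten times the top tested dose in every run; inconclusive means runs disagree, or a flat partial drop, or a poor fit; inactive means inactive every run, flat, wrong way or too weak.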

Assay: viability loss of control HMLE line – cell-based, HMLE_sh_eGFP, luminescence, powder samples, set 4, counter-screen for breast cancer stem cell project, dose response (AID 504450)
Settings: CellTiter-Glo luminescence, 72 h; at 30 µM (top of the series)
In short: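 Material: HMLE_sh_eGFP cells / Amount: 2000 cells/well / Medium: serum-free CSC medium / Dosing: 100 nL compound added by pin transfer per well / Incubation: ~72 h compound exposure, 37 °C / Detection: CellTiter-Glo luminescence / Benchmarks: DMSO neutral, puromycin positive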

Row | Structure (SMILES) | activity change, negative = viability loss
1 | CC(C)c1ccc(/C=C/C(=O)N2CCOCC2)cc1 | inconclusive: -11.6%
2 | Cc1cccc(OCC(=O)N/N=C/c2ccc[nH]2)c1C | inconclusive: -20.4%
3 | O=C(Nc1nccs1)c1ccc(COc2ccccc2)o1 | inactive: 5.29%
4 | O=C(CCc1ccc2c(c1)OCO2)N/N=C/c1ccc[nH]1 | inconclusive: -10.4%
5 | O=C(/C=C/c1ccccc1Cl)NC1=NCCS1 | inconclusive: -17.3%
6 | O=C(/C=C/c1ccc(Cl)cc1)NC1=NCCS1 | inactive: -4.58%
7 | COc1cccc(/C=C/C(=O)NC2=NCCS2)c1 | inactive: 1.9% and inconclusive: -13.7%
8 | C/C(=C\c1ccccc1)C(=O)NC1=NCCS1 | inactive: 12%
9 | O=C(N/N=C/c1ccc[nH]1)C1CC1c1ccccc1 (configuration not stated) | inactive: -2.24%
10 | Cc1ccc(/C=C/C(=O)NC2=NCCS2)cc1 | inconclusive: -23.7%
11 | COc1ccc(OCc2ccc(C(=O)Nc3nc(C)cs3)o2)cc1 | inconclusive: -37.3%
12 | O=S(=O)(/C=C/c1ccccc1)NC1=NCCS1 | inactive: 19.6%
13 | Cc1ccc2cc(C(=O)NC3=NCCS3)n(C)c2c1 | inconclusive: -17.7%
14 | O=C(c1ccc(COc2ccccc2)o1)N1CCOCC1 | inactive: 5.39%
15 | O=C(NCc1nccs1)c1ccc(COc2ccccc2)o1 | inconclusive: -15.8%
16 | O=C(NC1=NCCS1)C1CC1c1ccccc1 (configuration not stated) | inactive: 7.45%
17 | Cc1cc(C)c(/C=N/NC(=O)COc2c(Cl)cc(Cl)cc2Cl)[nH]1 | inconclusive: -9.21%

Sorted by number of heavy atoms (largest number first): part of the list above
Row | Structure (SMILES) | activity change, negative = viability loss
17 | Cc1cc(C)c(/C=N/NC(=O)COc2c(Cl)cc(Cl)cc2Cl)[nH]1 | inconclusive: -9.21%
4 | O=C(CCc1ccc2c(c1)OCO2)N/N=C/c1ccc[nH]1 | inconclusive: -10.4%
1 | CC(C)c1ccc(/C=C/C(=O)N2CCOCC2)cc1 | inconclusive: -11.6%
